Data reported in patent US20130243743A1 (ACCELERON PHARMA, published 2013).
No constants are given. Whether binding was seen depends on the method and setting. Some binding calls cover weakened binding; strength is not graded here.

Target: T1, Growth and Differentiation Factor-11 (GDF11) (UniProt O95390 299-407)
T1 sequence (looked up): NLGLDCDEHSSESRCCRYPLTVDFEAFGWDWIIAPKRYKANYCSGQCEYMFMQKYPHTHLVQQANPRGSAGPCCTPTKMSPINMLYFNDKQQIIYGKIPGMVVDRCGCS
Experiment: Biacore SPR; ActRIIB-Fc captured by anti-hFc antibody, ligand injected

binding: binds
B1: ActRIIB(A24N 20-134)-hFc (Fc fusion, not shown: a dimerising Fc or GST)
chain: GRGENETRECIYYNANWELERTNQSGLERCEGEQDKRLHCYASWRNSSGTIELVKKGCWLDDFNCYDRQECVATEENPQVYFCCCEGNFCNERFTHLPEAGGPEVTYEPPPTAPT
